# Reference: the supplement of paper PMC12823440, “Inhibitors supercharge kinase turnover through native proteolytic circuits” (Nature, 2025)
# Amino acid sequences for entries named in this document (tags omitted). A change or cut given only in a name is not applied to a line headed by its entry.
# UniProt Q16288, whole entry, looked up: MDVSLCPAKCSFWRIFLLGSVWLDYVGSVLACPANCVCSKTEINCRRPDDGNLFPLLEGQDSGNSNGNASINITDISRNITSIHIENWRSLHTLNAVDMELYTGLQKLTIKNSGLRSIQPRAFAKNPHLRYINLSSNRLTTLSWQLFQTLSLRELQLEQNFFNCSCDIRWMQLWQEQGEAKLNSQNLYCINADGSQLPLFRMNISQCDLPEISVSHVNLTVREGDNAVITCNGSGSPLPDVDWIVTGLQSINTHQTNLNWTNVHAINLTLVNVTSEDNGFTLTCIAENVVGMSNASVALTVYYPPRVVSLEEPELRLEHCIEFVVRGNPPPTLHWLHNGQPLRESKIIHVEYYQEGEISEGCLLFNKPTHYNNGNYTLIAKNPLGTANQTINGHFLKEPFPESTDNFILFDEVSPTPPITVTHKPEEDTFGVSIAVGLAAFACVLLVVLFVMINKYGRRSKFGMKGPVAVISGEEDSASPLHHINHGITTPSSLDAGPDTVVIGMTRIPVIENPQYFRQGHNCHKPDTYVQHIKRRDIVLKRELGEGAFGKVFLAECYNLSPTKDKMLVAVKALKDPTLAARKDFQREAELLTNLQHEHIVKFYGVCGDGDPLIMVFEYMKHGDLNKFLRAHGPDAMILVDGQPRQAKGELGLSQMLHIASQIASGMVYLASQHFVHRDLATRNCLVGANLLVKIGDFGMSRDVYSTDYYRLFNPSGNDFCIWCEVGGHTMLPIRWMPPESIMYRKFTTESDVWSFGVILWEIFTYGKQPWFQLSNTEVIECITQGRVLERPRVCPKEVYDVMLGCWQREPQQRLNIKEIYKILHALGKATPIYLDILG
# UniProt O96013: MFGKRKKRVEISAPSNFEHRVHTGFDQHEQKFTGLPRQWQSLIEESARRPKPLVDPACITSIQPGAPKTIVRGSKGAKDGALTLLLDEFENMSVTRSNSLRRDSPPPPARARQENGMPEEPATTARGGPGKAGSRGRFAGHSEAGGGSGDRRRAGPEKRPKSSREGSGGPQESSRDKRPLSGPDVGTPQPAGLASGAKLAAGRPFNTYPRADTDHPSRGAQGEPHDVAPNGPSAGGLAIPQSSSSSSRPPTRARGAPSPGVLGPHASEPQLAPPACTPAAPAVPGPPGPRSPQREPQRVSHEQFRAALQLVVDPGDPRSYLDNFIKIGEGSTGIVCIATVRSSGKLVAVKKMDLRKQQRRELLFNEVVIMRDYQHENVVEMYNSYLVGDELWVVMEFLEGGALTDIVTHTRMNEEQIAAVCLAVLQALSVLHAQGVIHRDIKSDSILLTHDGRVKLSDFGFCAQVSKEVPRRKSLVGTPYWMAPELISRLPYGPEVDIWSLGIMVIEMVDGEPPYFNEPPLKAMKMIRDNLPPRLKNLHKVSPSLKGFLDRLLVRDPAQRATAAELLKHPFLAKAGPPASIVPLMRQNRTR
# UniProt Q96KB5: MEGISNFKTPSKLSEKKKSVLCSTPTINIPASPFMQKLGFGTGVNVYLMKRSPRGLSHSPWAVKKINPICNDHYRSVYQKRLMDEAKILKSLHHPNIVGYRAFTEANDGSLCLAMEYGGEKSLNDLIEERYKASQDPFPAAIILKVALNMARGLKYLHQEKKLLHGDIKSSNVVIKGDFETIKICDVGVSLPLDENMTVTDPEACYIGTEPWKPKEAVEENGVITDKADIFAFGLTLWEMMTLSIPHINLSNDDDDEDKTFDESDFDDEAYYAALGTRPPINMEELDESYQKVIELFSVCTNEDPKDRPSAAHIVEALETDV
# UniProt Q15118, whole entry, looked up: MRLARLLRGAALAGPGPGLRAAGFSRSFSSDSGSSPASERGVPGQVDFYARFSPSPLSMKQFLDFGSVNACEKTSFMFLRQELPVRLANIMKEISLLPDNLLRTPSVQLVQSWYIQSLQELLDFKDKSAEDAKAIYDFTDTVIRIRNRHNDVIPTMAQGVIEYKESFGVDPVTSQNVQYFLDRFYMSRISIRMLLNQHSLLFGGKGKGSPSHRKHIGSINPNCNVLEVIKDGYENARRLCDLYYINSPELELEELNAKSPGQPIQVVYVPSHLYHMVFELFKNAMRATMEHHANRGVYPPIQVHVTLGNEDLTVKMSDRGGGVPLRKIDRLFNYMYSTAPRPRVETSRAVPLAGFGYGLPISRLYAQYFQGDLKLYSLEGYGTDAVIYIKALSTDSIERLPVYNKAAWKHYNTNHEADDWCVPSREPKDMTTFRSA
# UniProt P42356, whole entry, looked up: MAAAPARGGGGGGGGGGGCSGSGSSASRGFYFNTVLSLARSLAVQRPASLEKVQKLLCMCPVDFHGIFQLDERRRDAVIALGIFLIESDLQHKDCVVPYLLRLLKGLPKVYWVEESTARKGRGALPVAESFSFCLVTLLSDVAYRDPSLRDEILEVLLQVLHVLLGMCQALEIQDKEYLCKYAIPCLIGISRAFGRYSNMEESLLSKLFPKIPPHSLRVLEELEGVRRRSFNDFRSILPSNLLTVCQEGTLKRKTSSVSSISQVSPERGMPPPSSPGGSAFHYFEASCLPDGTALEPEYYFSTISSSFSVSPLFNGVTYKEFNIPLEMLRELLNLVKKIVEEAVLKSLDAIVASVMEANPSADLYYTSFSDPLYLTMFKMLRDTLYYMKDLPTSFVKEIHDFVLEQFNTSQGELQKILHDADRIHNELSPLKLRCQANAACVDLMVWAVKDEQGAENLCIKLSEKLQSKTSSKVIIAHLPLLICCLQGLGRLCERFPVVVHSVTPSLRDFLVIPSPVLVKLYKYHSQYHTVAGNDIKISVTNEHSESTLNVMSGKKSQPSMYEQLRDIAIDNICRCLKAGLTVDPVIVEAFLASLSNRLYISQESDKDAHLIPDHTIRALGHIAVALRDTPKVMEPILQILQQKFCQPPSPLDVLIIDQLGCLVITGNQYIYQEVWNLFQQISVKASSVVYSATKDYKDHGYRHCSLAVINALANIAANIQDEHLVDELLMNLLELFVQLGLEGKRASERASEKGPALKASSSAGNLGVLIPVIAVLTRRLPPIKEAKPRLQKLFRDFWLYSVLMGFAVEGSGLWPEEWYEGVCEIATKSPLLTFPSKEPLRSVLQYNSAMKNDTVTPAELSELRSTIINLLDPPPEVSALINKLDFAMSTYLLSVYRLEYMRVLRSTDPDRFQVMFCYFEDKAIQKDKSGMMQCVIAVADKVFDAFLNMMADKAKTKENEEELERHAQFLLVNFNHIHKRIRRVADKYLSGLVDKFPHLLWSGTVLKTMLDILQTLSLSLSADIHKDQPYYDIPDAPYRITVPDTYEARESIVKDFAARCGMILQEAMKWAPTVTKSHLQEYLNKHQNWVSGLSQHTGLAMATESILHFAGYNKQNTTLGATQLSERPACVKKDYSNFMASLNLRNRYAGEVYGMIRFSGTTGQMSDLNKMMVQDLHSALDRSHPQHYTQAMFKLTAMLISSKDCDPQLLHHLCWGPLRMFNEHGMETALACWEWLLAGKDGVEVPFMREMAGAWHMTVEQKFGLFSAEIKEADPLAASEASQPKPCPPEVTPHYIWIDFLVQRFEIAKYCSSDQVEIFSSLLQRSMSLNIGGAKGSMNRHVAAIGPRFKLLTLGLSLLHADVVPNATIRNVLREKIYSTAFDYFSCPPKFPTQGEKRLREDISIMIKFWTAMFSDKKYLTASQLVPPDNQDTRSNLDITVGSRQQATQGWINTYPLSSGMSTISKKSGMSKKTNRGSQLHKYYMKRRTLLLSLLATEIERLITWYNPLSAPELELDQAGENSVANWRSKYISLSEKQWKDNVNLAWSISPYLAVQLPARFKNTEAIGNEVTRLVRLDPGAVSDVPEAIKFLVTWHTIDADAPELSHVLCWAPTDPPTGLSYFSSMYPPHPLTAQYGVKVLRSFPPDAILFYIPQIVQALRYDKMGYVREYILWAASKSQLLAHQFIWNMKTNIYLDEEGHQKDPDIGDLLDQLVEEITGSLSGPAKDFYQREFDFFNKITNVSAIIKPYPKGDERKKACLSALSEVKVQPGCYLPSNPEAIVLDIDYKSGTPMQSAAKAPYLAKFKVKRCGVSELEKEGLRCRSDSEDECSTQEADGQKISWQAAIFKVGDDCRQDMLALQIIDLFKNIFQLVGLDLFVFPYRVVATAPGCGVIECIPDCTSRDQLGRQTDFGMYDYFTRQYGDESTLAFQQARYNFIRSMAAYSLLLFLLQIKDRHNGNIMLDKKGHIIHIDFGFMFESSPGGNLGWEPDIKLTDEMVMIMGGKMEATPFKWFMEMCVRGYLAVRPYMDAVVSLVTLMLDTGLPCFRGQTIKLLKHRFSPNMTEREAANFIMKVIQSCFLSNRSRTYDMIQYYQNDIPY
# UniProt Q9UBF8: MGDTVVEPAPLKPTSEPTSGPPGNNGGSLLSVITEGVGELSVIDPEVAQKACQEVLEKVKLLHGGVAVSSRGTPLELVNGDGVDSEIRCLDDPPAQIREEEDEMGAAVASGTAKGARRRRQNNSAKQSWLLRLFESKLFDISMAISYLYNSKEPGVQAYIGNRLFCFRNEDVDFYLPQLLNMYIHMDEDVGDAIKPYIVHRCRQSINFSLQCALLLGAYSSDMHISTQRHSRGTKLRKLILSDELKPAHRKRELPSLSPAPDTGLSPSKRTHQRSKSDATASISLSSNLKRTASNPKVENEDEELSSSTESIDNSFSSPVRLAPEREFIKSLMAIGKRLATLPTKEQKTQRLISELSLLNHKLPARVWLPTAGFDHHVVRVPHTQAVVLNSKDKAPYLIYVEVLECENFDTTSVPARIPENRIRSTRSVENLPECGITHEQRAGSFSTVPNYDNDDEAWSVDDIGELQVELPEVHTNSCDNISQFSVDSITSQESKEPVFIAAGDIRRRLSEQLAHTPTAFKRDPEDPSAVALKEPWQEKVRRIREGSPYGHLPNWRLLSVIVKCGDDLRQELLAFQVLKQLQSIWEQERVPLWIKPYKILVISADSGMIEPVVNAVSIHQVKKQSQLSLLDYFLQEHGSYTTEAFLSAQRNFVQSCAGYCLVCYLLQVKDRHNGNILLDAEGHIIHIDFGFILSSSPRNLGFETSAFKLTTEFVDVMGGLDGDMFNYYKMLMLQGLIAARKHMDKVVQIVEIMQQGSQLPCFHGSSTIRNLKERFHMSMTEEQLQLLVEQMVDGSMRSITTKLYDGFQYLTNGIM
# UniProt P53350, whole entry: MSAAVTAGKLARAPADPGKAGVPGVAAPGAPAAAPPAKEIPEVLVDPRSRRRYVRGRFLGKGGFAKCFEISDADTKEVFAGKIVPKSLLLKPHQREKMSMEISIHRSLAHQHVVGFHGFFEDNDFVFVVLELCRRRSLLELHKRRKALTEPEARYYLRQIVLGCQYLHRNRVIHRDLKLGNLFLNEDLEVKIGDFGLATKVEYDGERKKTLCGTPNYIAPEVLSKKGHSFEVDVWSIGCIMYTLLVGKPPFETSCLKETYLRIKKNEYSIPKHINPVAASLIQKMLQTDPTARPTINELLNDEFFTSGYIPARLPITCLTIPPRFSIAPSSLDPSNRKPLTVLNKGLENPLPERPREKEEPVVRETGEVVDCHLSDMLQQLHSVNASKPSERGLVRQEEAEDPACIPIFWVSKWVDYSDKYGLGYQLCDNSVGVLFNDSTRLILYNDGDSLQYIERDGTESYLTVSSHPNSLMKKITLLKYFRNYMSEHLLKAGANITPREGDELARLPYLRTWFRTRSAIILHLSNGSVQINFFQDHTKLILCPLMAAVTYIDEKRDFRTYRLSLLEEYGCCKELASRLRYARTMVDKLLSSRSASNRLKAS
# UniProt Q13131: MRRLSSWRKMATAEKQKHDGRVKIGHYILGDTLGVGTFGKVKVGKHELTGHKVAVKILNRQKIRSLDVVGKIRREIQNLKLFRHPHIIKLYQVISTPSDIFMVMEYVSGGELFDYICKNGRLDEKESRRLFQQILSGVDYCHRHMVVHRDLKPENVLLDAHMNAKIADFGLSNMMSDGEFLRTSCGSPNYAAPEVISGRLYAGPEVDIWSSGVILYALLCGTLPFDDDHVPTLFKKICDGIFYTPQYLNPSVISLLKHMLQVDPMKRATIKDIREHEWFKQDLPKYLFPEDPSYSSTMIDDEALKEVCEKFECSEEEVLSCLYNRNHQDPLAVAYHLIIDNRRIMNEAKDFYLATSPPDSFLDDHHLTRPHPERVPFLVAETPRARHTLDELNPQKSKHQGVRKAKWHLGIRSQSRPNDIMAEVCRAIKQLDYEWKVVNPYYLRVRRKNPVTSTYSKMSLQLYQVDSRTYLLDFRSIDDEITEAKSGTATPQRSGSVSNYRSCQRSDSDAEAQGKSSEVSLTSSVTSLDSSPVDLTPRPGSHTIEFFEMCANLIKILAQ
# The list shows a part of the results. The calls rarely recur for the same compound in another form.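 In K562 cells expressing nanoluciferase-fused kinases, luminescence was recorded at 4 h intervals between 2 and 18 h, normalized as percent of control with DMSO at 100% and a positive control at 0%. A significant (2 sigma) signal drop marks a time point as decreased. The authors' rule for a hit is not shown and takes in more than the number of time points.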
# Experiments:
# Test in all cases: number of time points (of 5) at which kinase-Nluc abundance scored as decreased, DMSO-normalised (count); higher = more persistent destabilization
# Settings in all cases: K562; 2-18 h
# NTRK3 = NTRK3 (UniProt Q16288)
# PAK4 = PAK4 (UniProt O96013)
# PBK = PBK (UniProt Q96KB5)
# PDGFRB = PDGFRB (UniProt P09619)
# PDK1 = PDK1 (UniProt Q15118)
# PDPK1 = PDPK1 (UniProt O15530)
# PIK4CA = PIK4CA (UniProt P42356)
# PIK4CB = PIK4CB (UniProt Q9UBF8)
# PLK1 = PLK1 (UniProt P53350)
# PRKAA1 = PRKAA1 (UniProt Q13131)
Structure (SMILES),number of time points (NTRK3),number of time points (PAK4),number of time points (PBK),number of time points (PDGFRB),number of time points (PDK1),number of time points (PDPK1),number of time points (PIK4CA),number of time points (PIK4CB),number of time points (PLK1),number of time points (PRKAA1)
COc1cc(-c2cc(-c3cc(OC)c(OC)c(OC)c3)cc(C(F)P(=O)(OCOC(=O)C(C)(C)C)OCOC(=O)C(C)(C)C)c2)cc(OC)c1OC (stereo not given) [Stafia-1-dipivaloyloxymethyl ester] (2.5 µM),0,0,0,0,0,0,0,0,0,0
CCOC(=O)c1c2c3c(cccc3[nH]c1=O)C(=O)c1ccccc1-2 (10 µM),0,0,0,0,0,0,0,0,0,0
CC(C)Oc1ccc(-c2cnc3c(-c4ccnc5ccccc45)cnn3c2)cc1 (10 µM),0,0,0,0,0,0,0,0,0,0
COc1ncc(Nc2ncc([C@@H](C)N3CCN(S(C)(=O)=O)CC3)cc2-c2nc(C)nc(N)n2)cc1F (10 µM),0,0,0,0,0,0,0,0,0,0
O=C(O)c1ccccc1Nc1cccc(C(F)(F)F)c1 [Flufenamic acid] (10 µM),0,0,0,0,0,0,0,0,0,0
CSc1ccc(CN2CCCC(Nc3ccc4[nH]ncc4c3)C2)cc1 (stereo not given) [Rho-Kinase-IN-1] (10 µM),0,0,0,0,0,0,0,0,0,0
O=C(Nc1cccc(-c2nncn2C2CC2)c1)c1cc(-n2cnc(C3CC3)c2)ccn1 (10 µM),0,0,0,0,0,0,0,0,0,0
CCc1c(C)sc(NC(=S)NC(=O)c2ccc(Cl)cc2)c1C(N)=O (10 µM),0,0,0,0,0,0,0,0,0,0
COc1cc(C(=O)N2CCC(N3CCN(C)CC3)CC2)ccc1Nc1ncc2c(n1)N(C)c1ccccc1C(=O)N2C (10 µM),0,0,0,0,0,0,0,0,0,0
Nc1n[nH]c2cc(-c3ccc(=O)n(Cc4cccc(Cl)c4)c3)ccc12 (10 µM),0,0,0,0,0,0,0,0,0,0
O=C1NC(=O)C(=Cc2ccc3c(c2)OCO3)S1 (10 µM),0,0,0,0,0,0,0,0,0,0
CNC(=O)c1ccc(-c2cnc3cnc(-c4ccccc4)cn23)cc1 (10 µM),0,0,0,0,0,0,0,0,0,0
CCCCCCCC/C=C\CCCCCCCC(=O)NCC(=O)O [N-Oleoyl glycine] (10 µM),0,0,0,0,0,0,0,0,5,0
COC(=O)[C@@]1(C)CC[C@]2(C(=O)O)CC[C@]3(C)C(=CC[C@@H]4[C@@]5(C)C[C@H](O)[C@H](O[C@@H]6OC[C@@H](O[C@@H]7O[C@H](CO)[C@@H](O)[C@H](O)[C@H]7O)[C@H](O)[C@H]6O)[C@@](C)(CO)[C@@H]5CC[C@]43C)[C@@H]2C1 [Esculentoside A] (10 µM),0,0,0,0,0,0,0,0,0,0
Cc1cc(Nc2cc(CN3CCOCC3)c3nc(C)c(Cc4ccc(Cl)cc4F)n3n2)n[nH]1 [Gandotinib] (2.5 µM),0,0,0,0,0,0,0,0,0,0
N#Cc1ccc(-c2c(-c3ncn[nH]3)sc(N3CCOCC3)c2C#N)c(F)c1 (10 µM),0,0,0,0,0,1,0,0,0,0
CC(C)(C)Cn1c(N)nc2ccc(-c3[nH]c(C(C)(C)C)nc3-c3ccc(F)cc3)nc21 [Ralimetinib dimesylate] (2.5 µM),0,0,0,0,0,0,0,0,0,0

# Some of these compounds in order of SMILES length, low to high.
Structure (SMILES),number of time points (NTRK3),number of time points (PAK4),number of time points (PBK),number of time points (PDGFRB),number of time points (PDK1),number of time points (PDPK1),number of time points (PIK4CA),number of time points (PIK4CB),number of time points (PLK1),number of time points (PRKAA1)
O=C(O)c1ccccc1Nc1cccc(C(F)(F)F)c1 [Flufenamic acid] (10 µM),0,0,0,0,0,0,0,0,0,0
O=C(Nc1cccc(-c2nncn2C2CC2)c1)c1cc(-n2cnc(C3CC3)c2)ccn1 (10 µM),0,0,0,0,0,0,0,0,0,0
COC(=O)[C@@]1(C)CC[C@]2(C(=O)O)CC[C@]3(C)C(=CC[C@@H]4[C@@]5(C)C[C@H](O)[C@H](O[C@@H]6OC[C@@H](O[C@@H]7O[C@H](CO)[C@@H](O)[C@H](O)[C@H]7O)[C@H](O)[C@H]6O)[C@@](C)(CO)[C@@H]5CC[C@]43C)[C@@H]2C1 [Esculentoside A] (10 µM),0,0,0,0,0,0,0,0,0,0

# (listing goes on)

Structure (SMILES),number of time points (NTRK3),number of time points (PAK4),number of time points (PBK),number of time points (PDGFRB),number of time points (PDK1),number of time points (PDPK1),number of time points (PIK4CA),number of time points (PIK4CB),number of time points (PLK1),number of time points (PRKAA1)
CC(C)n1cnc2c(Nc3cccc(Cl)c3)nc(NCCO)nc21 (10 µM),0,0,0,0,0,0,0,0,0,0
CCc1cccc(CC)c1NC(=O)c1nn(C)c2c1CCc1cnc(Nc3ccc(C(=O)NC4CCN(C)CC4)cc3OC(F)(F)F)nc1-2 (2 µM),0,0,0,0,0,0,0,0,0,0
[O-][n+]1cccc(-c2nc3c(Cl)cccc3cc2[C@@H](Nc2ncnc3cccnc23)C(F)(F)F)c1 [Seletalisib] (10 µM),0,0,0,0,0,0,0,0,0,0
Nc1ncc(-c2ccc(C(=O)N3CCNCC3)cc2)nc1-c1ccc(C(F)(F)F)cc1 (10 µM),0,0,0,0,0,0,0,0,0,0
O=c1[nH]ccc2cc(OC3CCNCC3)ccc12 (10 µM),0,0,0,0,0,0,0,0,0,0
O=C(Nc1ccc(Cl)cc1)C1CCCN(C(=O)c2cccc(-c3ccco3)c2)C1 (stereo not given) (2.5 µM),0,0,0,0,0,0,0,0,0,0
CC(C)c1cnn2c(NCc3ccccc3-n3cccn3)nc(OC3CCCNC3)nc12 (stereo not given) (2.5 µM),0,0,0,2,0,0,2,0,0,0
COc1ccc2c(c1OC)OC1c3ccc(O)cc3OCC21 (stereo not given) [Methylnissolin] (10 µM),0,0,0,0,0,0,0,0,0,0
CC(C)(C)C(=O)N1N=CC[C@H]1c1ccccc1 (10 µM),0,0,0,0,0,0,0,0,0,0
COc1nc(-c2ccnc(NC(=O)C3CC3)c2)sc1C(N)=O [GSK-3β inhibitor 2] (10 µM),0,0,0,0,0,0,0,0,0,0
COc1ccccc1/C=C1\C(=O)Nc2ccccc21 (10 µM),0,0,0,0,0,0,0,0,0,0
C[C@H]1Cc2ccccc2N1C(=O)Cc1nc(N2CCOCC2)cc(=O)[nH]1 (2.5 µM),0,0,0,0,0,0,0,0,0,0
Nc1cc(C(F)F)c(-c2nc(N3C4CCC3COC4)nc(N3C4CCC3COC4)n2)cn1 (2.5 µM),0,0,0,0,0,0,0,0,0,0
C[C@@H]1CCc2ncc(F)cc2[C@H]2CCCN2c2ccn3ncc(c3n2)C(=O)N1 [Selitrectinib] (10 µM),0,0,0,0,0,0,0,0,0,0
C=C[C@H]1[C@H](O[C@@H]2O[C@H](CO)[C@@H](O)[C@H](O)[C@H]2OC(=O)c2c(O)cc(O)cc2-c2cccc(O)c2)OC=C2C(=O)OCC[C@H]21 [Amarogentin] (10 µM),0,0,0,0,0,0,0,0,0,0
COc1cnccc1Nc1nc(-c2nn(Cc3c(F)cc(OCCO)cc3F)c3ccccc23)ncc1OC (10 µM),0,0,0,0,0,0,0,0,0,0
CCn1nc(C2CCN(C(=O)CCO)CC2)nc1-c1cnc(N)c(-c2nnc(C(C)(C)C)o2)n1 (10 µM),0,0,0,0,0,0,0,0,0,0
